Test results: paper PMC5907308, “21st Brazilian Diabetes Society Congress” (Diabetology & Metabolic Syndrome, 2018)

Test system: people with T2DM aged ≥ 65 year
Assay: Patient-level meta-analysis of EDITION 1, 2 and 3, participants aged ≥ 65 year, 1 year
Conditions: human, in vivo

insulin glargine [Gla-100]
Mean (SD) daily basal insulin dose increase from baseline to 1 year: 0.23 (0.25) U/kg

insulin glargine [Gla-300]
Mean (SD) daily basal insulin dose increase from baseline to 1 year: 0.35 (0.27) U/kg

Some results come without the dose or concentration used.
